Laboratory results reported in PMC5705219.
Results are given in words; binding and its absence hold for the method and conditions named. Binding seen in cells or lysates may run through a third protein. Some entries that bind do so weakly or less than the wild type.

Sequences of proteins named here, by UniProt entry; tags and fusion partners are left off.
UniProt Q9NQV7: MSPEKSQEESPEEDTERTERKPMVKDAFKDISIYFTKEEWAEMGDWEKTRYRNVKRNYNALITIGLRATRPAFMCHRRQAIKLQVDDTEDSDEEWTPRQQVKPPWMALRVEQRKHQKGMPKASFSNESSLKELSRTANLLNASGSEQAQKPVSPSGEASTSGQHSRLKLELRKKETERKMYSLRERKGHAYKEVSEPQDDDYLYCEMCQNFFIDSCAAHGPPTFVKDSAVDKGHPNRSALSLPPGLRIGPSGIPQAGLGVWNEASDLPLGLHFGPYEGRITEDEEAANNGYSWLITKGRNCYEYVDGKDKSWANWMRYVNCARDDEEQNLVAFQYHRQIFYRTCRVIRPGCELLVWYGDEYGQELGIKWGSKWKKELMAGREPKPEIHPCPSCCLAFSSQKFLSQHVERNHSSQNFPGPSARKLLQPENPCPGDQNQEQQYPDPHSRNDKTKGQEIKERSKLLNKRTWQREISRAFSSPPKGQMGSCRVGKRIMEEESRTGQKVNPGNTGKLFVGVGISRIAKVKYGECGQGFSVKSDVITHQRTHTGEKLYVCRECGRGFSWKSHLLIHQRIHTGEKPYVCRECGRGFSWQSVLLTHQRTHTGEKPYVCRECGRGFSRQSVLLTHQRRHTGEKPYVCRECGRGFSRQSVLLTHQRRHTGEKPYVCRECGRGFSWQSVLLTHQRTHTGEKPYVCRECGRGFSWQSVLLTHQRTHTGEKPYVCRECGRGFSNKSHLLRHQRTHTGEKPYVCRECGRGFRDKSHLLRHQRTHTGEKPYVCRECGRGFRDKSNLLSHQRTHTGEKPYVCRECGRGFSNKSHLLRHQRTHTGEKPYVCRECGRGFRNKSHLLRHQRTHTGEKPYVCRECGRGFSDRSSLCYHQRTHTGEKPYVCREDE

Tests used:
[1] = biological target: full-length human PRDM9 (B allele), C-terminally tagged with HA or V5 (human) (UniProt Q9NQV7); test: co-IP; HEK293T lysates treated with 125 U/ml benzonase and 2 mM MgCl2 for 1 hr at 4 °C (complete DNA digestion) before IP with anti-V5; western blot with anti-HA
[2] = biological target: full-length human PRDM9 (B allele), C-terminally tagged with HA or V5 (human) (UniProt Q9NQV7); test: co-IP; HEK293T co-transfected with an HA-tagged and a V5-tagged construct; lysis in 1% Triton X-100, 150 mM NaCl, 50 mM Tris pH 8.0; IP with anti-HA or anti-V5 (IgG mock control), 4 °C; western blot against the other tag

binding [1]: binds
binding [2]: binds
Substance: full-length human PRDM9 (B allele), C-terminally tagged with HA or V5 (from UniProt Q9NQV7 1-894)
